Source: patent US20070053883A1, “Neuronal cell lineages and methods of production thereof” (THE JOHNS HOPKINS UNIVERSITY, priority 2003, published 2007)
At least one structure is not confirmed: it was looked up by name or label, or the drawing left a doubt.

The chains behind the UniProt entries cited, without tags or fusion partners. Residues count along the entry.
UniProt P56726, 33-793 W539L: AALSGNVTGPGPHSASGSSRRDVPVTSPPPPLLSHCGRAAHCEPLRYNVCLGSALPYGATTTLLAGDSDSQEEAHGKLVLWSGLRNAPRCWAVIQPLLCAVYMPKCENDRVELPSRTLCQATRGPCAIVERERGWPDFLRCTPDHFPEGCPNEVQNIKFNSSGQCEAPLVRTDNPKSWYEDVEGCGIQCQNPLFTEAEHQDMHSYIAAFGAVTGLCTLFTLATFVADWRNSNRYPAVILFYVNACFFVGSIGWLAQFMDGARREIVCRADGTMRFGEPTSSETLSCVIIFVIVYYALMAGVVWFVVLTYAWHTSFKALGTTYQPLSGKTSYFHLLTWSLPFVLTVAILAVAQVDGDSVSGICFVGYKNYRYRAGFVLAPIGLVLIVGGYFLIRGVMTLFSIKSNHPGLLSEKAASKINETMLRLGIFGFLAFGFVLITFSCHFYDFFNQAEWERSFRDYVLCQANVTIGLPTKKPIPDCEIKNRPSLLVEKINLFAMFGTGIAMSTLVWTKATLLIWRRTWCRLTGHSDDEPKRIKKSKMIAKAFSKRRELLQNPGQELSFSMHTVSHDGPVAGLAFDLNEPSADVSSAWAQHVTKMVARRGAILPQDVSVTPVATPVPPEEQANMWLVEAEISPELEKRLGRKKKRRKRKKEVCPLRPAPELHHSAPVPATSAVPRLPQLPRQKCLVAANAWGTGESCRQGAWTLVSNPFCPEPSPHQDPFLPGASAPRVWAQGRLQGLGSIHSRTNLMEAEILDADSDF

Target: T1, SmoA1 (Mus musculus, UniProt P56726, W539L)
T1 construct: expressed in transfected cells
Test: Shh pathway activity driven by oncogenic Smo (SmoA1, W539L) in NIH3T3 cells
Format: cell-based
Settings: Forskolin 100 μM, positive control
Description: Shh signaling assays. Shh signaling assays were carried out as described^16 in primary fibroblasts lacking functional Dhcr7, Sc5d or Ptch and in NIH3T3 fibroblasts. Dhcr7^−/− and Dhcr7^+/− MEFs were generated from embryonic day-9 mutant mice and Sc5h1 and Sc5d^−/− and Sc5d^+/− MEFs from embryonic day-14.5 mutant mice. We generated a reporter construct with firefly luciferase and Gli (pGL3-8xGli-luciferase) by cloning eight tandem Gli-binding sites and a lens crystallin promoter from the 8xGli-BS Luc construct^22 into the pGL3-Basic vector (Promega). We determined relative Hh pathway activity in Dhcr7^−/−, Dhcr7^+/−, Sc5d^+/+ and Sc5d^+/− MEFs from the expression of transiently transfected pGL3-8xGli-luciferase and control Renilla luciferase (pRL-SV40; Promega) vectors. In Ptch^−/− MEFs, we normalized β-galactosidase activity expressed under the control of the Ptch promoter for protein levels to determine relative Hh pathway activity. In the NIH3T3 cell clone Shh-LIGHT Z3, we normalized 8xGli-BS luciferase activity for β-galactosidase activity from stably transfected vectors (8xGli-BS Luc^22 and piZ-lacZ). We established clonal sublines of Shh-LIGHT Z3 by cotransfecting either Smo tagged with Myc epitope or SmoA1 with vector encoding G418 resistance (pGT; Invivogen). All transfections were done with Fugene 6. […]

In the case of `C=C[C@@]1(C)CC(=O)[C@]2(O)[C@@]3(C)[C@@H](O)CCC(C)(C)[C@@H]3[C@H](O)[C@H](OC(C)=O)[C@@]2(C)O1` [Forskolin], the SmoA1-driven pathway activity is reported as “inhibition”.
